Amino acid sequences for entries named in this document (tags omitted). A change or cut given only in a name is not applied to a line headed by its entry.
UniProt Q00978: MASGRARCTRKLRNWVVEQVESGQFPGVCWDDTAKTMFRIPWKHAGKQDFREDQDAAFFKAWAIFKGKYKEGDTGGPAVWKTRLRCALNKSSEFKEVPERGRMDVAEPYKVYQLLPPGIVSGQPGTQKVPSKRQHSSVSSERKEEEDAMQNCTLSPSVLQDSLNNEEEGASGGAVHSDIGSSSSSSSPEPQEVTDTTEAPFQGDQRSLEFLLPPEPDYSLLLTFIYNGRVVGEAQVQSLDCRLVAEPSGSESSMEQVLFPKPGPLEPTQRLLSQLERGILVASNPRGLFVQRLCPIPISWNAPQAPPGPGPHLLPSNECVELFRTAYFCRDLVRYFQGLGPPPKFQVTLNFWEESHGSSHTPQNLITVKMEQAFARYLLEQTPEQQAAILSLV

According to PMC12548473, “Solution structure of the C-terminal domain of the measles virus V protein in its free form and mechanistic analysis of STAT2 targeting” (Journal of Virology, 2025):

Biological target: T1, MeV-V_(CT221-299) (measles virus V protein, residues 221-299, containing the C-terminal domain) (measles virus (strain Ichinose-B95a)) (UniProt P0C774)
T1 sequence: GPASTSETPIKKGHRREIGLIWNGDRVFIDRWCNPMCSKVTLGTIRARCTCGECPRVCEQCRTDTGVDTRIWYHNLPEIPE
Experiment: NMR titration; SOFAST 1H-15N HMQC of 20 µM 15N-MeV-V_(CT221-299); unlabelled partner added (STAT2-core 7.5, 10, 12.5, 20 µM; IRF9-IAD 20 µM); loss of signal intensity read out; 20°C; both purified

For “IRF9-IRF-associated domain (IRF9-IAD) (from UniProt Q00978) (domain or fragment)”, the binding was “binds weakly”.

Results are given in words; binding and its absence hold for the method and conditions named. A result given as binding can be weak or reduced; the word gives no strength.
